Measured values taken from paper PMC11039992.
These are yes or no findings as the source states them, for the method shown. Binding seen in cells or lysates may run through a third protein. These calls come from enrichment with a bait or labelling near it, and not all partners need be listed. For part of these data: A no says only that the protein was not detected with the bait.

Assays:
Assay in all cases: proximity labelling; BioID: N-terminally MAC-tagged bait in Flp-In T-REx 293 cells, induced with 2 μg/ml tetracycline and 50 μM biotin for 24 h; three independent replicates; mass spectrometry
[1] = target: T1, MAC-U11/U12-65K (human) (UniProt Q96LT9)
T1 sequence: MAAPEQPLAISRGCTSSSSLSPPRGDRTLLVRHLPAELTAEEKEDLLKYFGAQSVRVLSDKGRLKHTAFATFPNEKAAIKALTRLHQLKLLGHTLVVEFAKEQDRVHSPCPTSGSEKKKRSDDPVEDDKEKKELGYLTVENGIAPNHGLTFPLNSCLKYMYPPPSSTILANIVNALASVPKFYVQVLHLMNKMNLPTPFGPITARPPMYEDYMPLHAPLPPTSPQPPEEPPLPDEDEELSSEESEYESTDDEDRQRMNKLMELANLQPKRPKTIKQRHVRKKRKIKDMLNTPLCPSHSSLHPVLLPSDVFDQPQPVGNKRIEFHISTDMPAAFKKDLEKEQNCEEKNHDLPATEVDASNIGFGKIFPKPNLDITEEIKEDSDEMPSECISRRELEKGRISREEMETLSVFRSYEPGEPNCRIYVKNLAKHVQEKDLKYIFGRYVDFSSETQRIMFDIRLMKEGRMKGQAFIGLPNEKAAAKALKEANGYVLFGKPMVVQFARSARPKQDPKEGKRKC

[2] = target: T2, MAC-RBM41-WT (human) (UniProt Q96IZ5)
T2 sequence: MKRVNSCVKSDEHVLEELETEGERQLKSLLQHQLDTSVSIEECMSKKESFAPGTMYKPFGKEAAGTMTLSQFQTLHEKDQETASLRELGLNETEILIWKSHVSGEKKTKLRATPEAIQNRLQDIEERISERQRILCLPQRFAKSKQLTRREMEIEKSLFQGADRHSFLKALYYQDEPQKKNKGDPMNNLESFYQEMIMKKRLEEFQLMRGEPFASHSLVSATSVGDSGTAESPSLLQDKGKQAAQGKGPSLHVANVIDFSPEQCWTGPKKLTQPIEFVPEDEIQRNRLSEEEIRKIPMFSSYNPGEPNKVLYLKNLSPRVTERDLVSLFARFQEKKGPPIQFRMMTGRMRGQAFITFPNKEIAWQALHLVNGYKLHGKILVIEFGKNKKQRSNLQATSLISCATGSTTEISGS

[3] = target: T3, MAC-RBM41-Y312A (human) (UniProt Q96IZ5)
T3 sequence: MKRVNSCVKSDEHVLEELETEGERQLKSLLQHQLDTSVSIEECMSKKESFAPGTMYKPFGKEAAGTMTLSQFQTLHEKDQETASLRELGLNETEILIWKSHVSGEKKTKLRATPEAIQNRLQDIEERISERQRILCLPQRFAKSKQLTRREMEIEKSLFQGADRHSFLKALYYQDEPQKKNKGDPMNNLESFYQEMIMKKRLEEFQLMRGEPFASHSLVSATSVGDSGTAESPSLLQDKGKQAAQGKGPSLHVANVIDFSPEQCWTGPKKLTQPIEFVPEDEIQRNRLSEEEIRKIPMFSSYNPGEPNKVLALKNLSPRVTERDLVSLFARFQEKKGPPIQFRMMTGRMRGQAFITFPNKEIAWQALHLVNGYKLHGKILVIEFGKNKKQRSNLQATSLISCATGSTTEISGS

[4] = target: T4, MAC-RBM41-(1–258) (human) (UniProt Q96IZ5)
T4 sequence: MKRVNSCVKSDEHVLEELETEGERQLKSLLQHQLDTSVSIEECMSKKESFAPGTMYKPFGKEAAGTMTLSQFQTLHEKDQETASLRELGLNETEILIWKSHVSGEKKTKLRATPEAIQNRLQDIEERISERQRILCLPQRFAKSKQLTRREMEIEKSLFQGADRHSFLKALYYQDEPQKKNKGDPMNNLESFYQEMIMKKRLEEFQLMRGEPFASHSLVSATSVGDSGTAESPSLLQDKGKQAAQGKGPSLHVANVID

[5] = target: T5, MAC-RBM41-Y312A + F354A (human) (UniProt Q96IZ5)
T5 sequence: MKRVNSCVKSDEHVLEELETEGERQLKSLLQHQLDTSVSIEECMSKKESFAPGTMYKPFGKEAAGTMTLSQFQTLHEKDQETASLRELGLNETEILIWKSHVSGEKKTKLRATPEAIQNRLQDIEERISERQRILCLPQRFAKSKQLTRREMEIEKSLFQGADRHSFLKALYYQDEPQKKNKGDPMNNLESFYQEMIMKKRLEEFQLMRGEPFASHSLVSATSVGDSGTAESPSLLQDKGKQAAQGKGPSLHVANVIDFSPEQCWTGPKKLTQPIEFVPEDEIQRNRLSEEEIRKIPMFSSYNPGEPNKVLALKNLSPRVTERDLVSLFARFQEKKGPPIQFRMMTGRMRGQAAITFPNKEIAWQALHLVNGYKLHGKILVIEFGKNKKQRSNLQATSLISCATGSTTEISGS

[6] = target: T6, MAC-RBM41-F354A (human) (UniProt Q96IZ5)
T6 sequence: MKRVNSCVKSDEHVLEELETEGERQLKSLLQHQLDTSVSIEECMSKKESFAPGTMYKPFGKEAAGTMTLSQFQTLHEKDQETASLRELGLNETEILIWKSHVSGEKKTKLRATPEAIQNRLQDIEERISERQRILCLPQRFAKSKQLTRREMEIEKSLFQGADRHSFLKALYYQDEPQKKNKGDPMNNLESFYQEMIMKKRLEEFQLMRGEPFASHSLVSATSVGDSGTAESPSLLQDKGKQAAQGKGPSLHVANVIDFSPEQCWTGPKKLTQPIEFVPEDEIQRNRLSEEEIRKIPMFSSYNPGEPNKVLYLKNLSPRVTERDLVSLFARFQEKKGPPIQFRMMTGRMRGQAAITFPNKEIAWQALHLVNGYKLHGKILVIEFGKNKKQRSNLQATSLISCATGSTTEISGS

[7] = target: T7, MAC-RBM41-Q352A (human) (UniProt Q96IZ5)
T7 sequence: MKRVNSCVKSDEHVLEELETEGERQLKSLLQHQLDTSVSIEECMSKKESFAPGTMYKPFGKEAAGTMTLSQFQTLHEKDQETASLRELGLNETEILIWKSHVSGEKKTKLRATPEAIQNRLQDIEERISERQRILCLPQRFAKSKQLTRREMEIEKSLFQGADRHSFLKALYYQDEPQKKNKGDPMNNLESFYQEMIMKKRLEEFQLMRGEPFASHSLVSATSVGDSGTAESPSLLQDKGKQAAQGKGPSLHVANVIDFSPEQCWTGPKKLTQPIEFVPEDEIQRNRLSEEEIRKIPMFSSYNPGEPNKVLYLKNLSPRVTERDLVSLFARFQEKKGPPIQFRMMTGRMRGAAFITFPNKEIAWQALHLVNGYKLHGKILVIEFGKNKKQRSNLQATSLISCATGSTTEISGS

B1: U11-59K (PDCD7) (protein, UniProt Q8N8D1 1-485)
chain: MALPPFFGQGRPGPPPPQPPPPAPFGCPPPPLPSPAFPPPLPQRPGPFPGASAPFLQPPLALQPRASAEASRGGGGAGAFYPVPPPPLPPPPPQCRPFPGTDAGERPRPPPPGPGPPWSPRWPEAPPPPADVLGDAALQRLRDRQWLEAVFGTPRRAGCPVPQRTHAGPSLGEVRARLLRALRLVRRLRGLSQALREAEADGAAWVLLYSQTAPLRAELAERLQPLTQAAYVGEARRRLERVRRRRLRLRERAREREAEREAEAARAVEREQEIDRWRVKCVQEVEEKKREQELKAAADGVLSEVRKKQADTKRMVDILRALEKLRKLRKEAAARKGVCPPASADETFTHHLQRLRKLIKKRSELYEAEERALRVMLEGEQEEERKRELEKKQRKEKEKILLQKREIESKLFGDPDEFPLAHLLEPFRQYYLQAEHSLPALIQIRHDWDQYLVPSDHPKGNFVPQGWVLPPLPSNDIWATAVKLH
Question: What does the source list for B1?
Answer: binding [1]: binds; binding [2]: no binding

B2: DEAH-box RNA helicase DHX8 (enzyme, UniProt Q14562 1-1220)
chain: MAVAVAMAGALIGSEPGPAEELAKLEYLSLVSKVCTELDNHLGINDKDLAEFVISLAEKNTTFDTFKASLVKNGAEFTDSLISNLLRLIQTMRPPAKPSTSKDPVVKPKTEKEKLKELFPVLCQPDNPSVRTMLDEDDVKVAVDVLKELEALMPSAAGQEKQRDAEHRDRTKKKKRSRSRDRNRDRDRDRERNRDRDHKRRHRSRSRSRSRTRERNKVKSRYRSRSRSQSPPKDRKDRDKYGERNLDRWRDKHVDRPPPEEPTIGDIYNGKVTSIMQFGCFVQLEGLRKRWEGLVHISELRREGRVANVADVVSKGQRVKVKVLSFTGTKTSLSMKDVDQETGEDLNPNRRRNLVGETNEETSMRNPDRPTHLSLVSAPEVEDDSLERKRLTRISDPEKWEIKQMIAANVLSKEEFPDFDEETGILPKVDDEEDEDLEIELVEEEPPFLRGHTKQSMDMSPIKIVKNPDGSLSQAAMMQSALAKERRELKQAQREAEMDSIPMGLNKHWVDPLPDAEGRQIAANMRGIGMMPNDIPEWKKHAFGGNKASYGKKTQMSILEQRESLPIYKLKEQLVQAVHDNQILIVIGETGSGKTTQITQYLAEAGYTSRGKIGCTQPRRVAAMSVAKRVSEEFGCCLGQEVGYTIRFEDCTSPETVIKYMTDGMLLRECLIDPDLTQYAIIMLDEAHERTIHTDVLFGLLKKTVQKRQDMKLIVTSATLDAVKFSQYFYEAPIFTIPGRTYPVEILYTKEPETDYLDASLITVMQIHLTEPPGDILVFLTGQEEIDTACEILYERMKSLGPDVPELIILPVYSALPSEMQTRIFDPAPPGSRKVVIATNIAETSLTIDGIYYVVDPGFVKQKVYNSKTGIDQLVVTPISQAQAKQRAGRAGRTGPGKCYRLYTERAYRDEMLTTNVPEIQRTNLASTVLSLKAMGINDLLSFDFMDAPPMETLITAMEQLYTLGALDDEGLLTRLGRRMAEFPLEPMLCKMLIMSVHLGCSEEMLTIVSMLSVQNVFYRPKDKQALADQKKAKFHQTEGDHLTLLAVYNSWKNNKFSNPWCYENFIQARSLRRAQDIRKQMLGIMDRHKLDVVSCGKSTVRVQKAICSGFFRNAAKKDPQEGYRTLIDQQVVYIHPSSALFNRQPEWVVYHELVLTTKEYMREVTTIDPRWLVEFAPAFFKVSDPTKLSKQKKQQRLEPLYNRYEEPNAWRISRAFRRR
Question: How did the binding [3] turn out when B2 was run?
Answer: binds

Question: And the binding [4]?
Answer: binds

Question: What about the binding [5] of the same binder?
Answer: binds

Question: And the binding [1]?
Answer: no binding

Question: What about the binding [6] of the same binder?
Answer: binds

Question: What about the binding [7] of the same binder?
Answer: binds

Question: What about the binding [2] of the same binder?
Answer: binds

B3: U11/U12-20K (ZMAT5) (protein, UniProt Q9UDW3 1-170)
chain: MGKRYFCDYCDRSFQDNLHNRKKHLNGLQHLKAKKVWYDMFRDAAAILLDEQNKRPCRKFLLTGQCDFGSNCRFSHMSERDLQELSIQVEEERRAREWLLDAPELPEGHLEDWLEKRAKRLSSAPSSRAEPIRTTVFQYPVGWPPVQELPPSLRAPPPGGWPLQPRVQWG
Question: What does the source list for B3?
Answer: binding [1]: binds; binding [2]: no binding

B4: U11-48K (SNRNP48) (protein, UniProt Q6IEG0 1-339)
chain: MEGEPPPVEERRRLQEELNEFVESGCRTLEEVTASLGWDLDSLDPGEEEAAEDEVVICPYDSNHHMPKSSLAKHMASCRLRKMGYTKEEEDEMYNPEFFYENVKIPSITLNKDSQFQIIKQARTAVGKDSDCYNQRIYSSLPVEVPLNHKRFVCDLTQADRLALYDFVVEETKKKRSDSQIIENDSDLFVDLAAKINQDNSRKSPKSYLEILAEVRDYKRRRQSYRAKNVHITKKSYTEVIRDVINVHMEELSNHWQEEQEKAEDDAEKNEERRSASVDSRQSGGSYLDAECSRHRRDRSRSPHKRKRNKDKDKNCESRRRKERDGERHHSHKRRKQKI
Question: What does the source list for B4?
Answer: binding [1]: binds; binding [2]: no binding

B5: U11-35K (SNRNP35) (protein, UniProt Q16560 1-246)
chain: MNDWMPIAKEYDPLKAGSIDGTDEDPHDRAVWRAMLARYVPNKGVIGDPLLTLFVARLNLQTKEDKLKEVFSRYGDIRRLRLVRDLVTGFSKGYAFIEYKEERAVIKAYRDADGLVIDQHEIFVDYELERTLKGWIPRRLGGGLGGKKESGQLRFGGRDRPFRKPINLPVVKNDLYREGKRERRERSRSRERHWDSRTRDRDHDRGREKRWQEREPTRVWPDNDWERERDFRDDRIKGREKKERGK
Question: Which results are given for B5?
Answer: binding [1]: binds; binding [2]: no binding
